Laboratory results as given in PMC12017769.
No constants are given. Whether binding was seen depends on the method and setting. Binding seen in cells or lysates may run through a third protein. Some binding calls cover weakened binding; strength is not graded here.

Target: T1, SF1 (branchpoint binding protein) (human (endogenous in 293A-TOA)), Q15637
T1 chain: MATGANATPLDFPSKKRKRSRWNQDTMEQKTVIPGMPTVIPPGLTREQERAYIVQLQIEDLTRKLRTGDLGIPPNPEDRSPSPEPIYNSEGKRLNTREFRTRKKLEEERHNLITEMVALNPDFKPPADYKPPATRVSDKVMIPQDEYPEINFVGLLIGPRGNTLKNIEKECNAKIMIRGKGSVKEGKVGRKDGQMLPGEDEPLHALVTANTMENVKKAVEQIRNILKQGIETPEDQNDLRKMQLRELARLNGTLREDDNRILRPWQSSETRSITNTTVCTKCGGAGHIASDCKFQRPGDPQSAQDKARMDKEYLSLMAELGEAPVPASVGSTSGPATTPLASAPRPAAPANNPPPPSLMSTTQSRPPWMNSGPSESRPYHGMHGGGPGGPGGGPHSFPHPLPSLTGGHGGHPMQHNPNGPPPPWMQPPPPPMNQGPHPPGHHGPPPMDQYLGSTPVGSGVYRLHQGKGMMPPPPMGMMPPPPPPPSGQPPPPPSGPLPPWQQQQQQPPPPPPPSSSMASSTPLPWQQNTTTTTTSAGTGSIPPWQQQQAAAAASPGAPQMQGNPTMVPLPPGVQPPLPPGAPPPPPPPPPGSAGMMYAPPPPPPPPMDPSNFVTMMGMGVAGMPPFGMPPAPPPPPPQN
Assay: co-IP; SF1 immunoprecipitated with mouse anti-SF1 antibodies and protein A magnetic beads from lysate of 293A-TOA cells treated with DMSO, TG or OSMI-1; lysate treated with RQ1 DNase and RNase A; 100 mM NaCl, 2.5 mM MgCl2, 10 mM Tris-HCl pH 7.5, 0.5% IGEPAL CA-630; 2 hr at 4°C; blot probed with rabbit anti-SFSWAP
Conditions: remark: other sources report otherwise

- binding: binds
B1: SFSWAP (splicing factor, suppressor of white-apricot homolog), Q12872 1-951 (protein)
chain: MYGASGGRAKPERKSGAKEEAGPGGAGGGGSRVELLVFGYACKLFRDDERALAQEQGQHLIPWMGDHKILIDRYDGRGHLHDLSEYDAEYSTWNRDYQLSEEEARIEALCDEERYLALHTDLLEEEARQEEEYKRLSEALAEDGSYNAVGFTYGSDYYDPSEPTEEEEPSKQREKNEAENLEENEEPFVAPLGLSVPSDVELPPTAKMHAIIERTASFVCRQGAQFEIMLKAKQARNSQFDFLRFDHYLNPYYKFIQKAMKEGRYTVLAENKSDEKKKSGVSSDNEDDDDEEDGNYLHPSLFASKKCNRLEELMKPLKVVDPDHPLAALVRKAQADSSTPTPHNADGAPVQPSQVEYTADSTVAAMYYSYYMLPDGTYCLAPPPPGIDVTTYYSTLPAGVTVSNSPGVTTTAPPPPGTTPLPPPTTAETSSGATSTTTTTSALAPVAAIIPPPPDVQPVIDKLAEYVARNGLKFETSVRAKNDQRFEFLQPWHQYNAYYEFKKQFFLQKEGGDSMQAVSAPEEAPTDSAPEKPSDAGEDGAPEDAAEVGARAGSGGKKEASSSKTVPDGKLVKASFAPISFAIKAKENDLLPLEKNRVKLDDDSDDDEESKEGQESSSSAANTNPAVAPPCVVVEEKKPQLTQEELEAKQAKQKLEDRLAAAAREKLAQASKESKEKQLQAERKRKAALFLQTLKNPLPEAEAGKIEESPFSVEESSTTPCPLLTGGRPLPTLEVKPPDRPSSKSKDPPREEEKEKKKKKHKKRSRTRSRSPKYHSSSKSRSRSHSKAKHSLPSAYRTVRRSRSRSRSPRRRAHSPERRREERSVPTAYRVSRSPGASRKRTRSRSPHEKKKKRRSRSRTKSKARSQSVSPSKQAAPRPAAPAAHSAHSASVSPVESRGSSQERSRGVSQEKEAQISSAIVSSVQSKITQDLMAKVRAMLAASKNLQTSAS
